Results from one PubChem assay

Data taken from PubChem BioAssay AID504749, deposited by NCATS (2011).

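A panel of P. falciparum strains inside erythrocytes is exposed to compounds for three days, then a DNA-binding dye reports the amount of parasite DNA. Each compound was titrated across a series from about 0.000037 to 29 µM. The number is the fitted AC50, the concentration giving a half-maximal change in signal; a lower value means higher potency, whether the curve shows a decrease or an increase. Calls follow the curve class and fit quality: every row here is inconclusive, covering signal-raising curves and weak, poorly fitted, partial or highest-dose-only inhibition curves.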

Values are in µM. All entries here are filed as inconclusive. These entries are mostly ones the record files as inconclusive; other results of the assay are not listed here. A potency from a partial, single-point or poor curve is only a rough figure. Some entries filed as inconclusive have a full curve.

[Cl-].[Cl-].[Hg+2] [CP315] read Potency 19.01 µM (inhibitor, single point).
[Cl-].[Cl-].[Hg+2] [DIV14] read Potency 16.94 µM (inhibitor, single point).
[Cl-].[Cl-].[Hg+2] [CP286] read Potency 8.912 µM (inhibitor, partial curve).
[Cl-].[Cl-].[Hg+2] [C2A] read Potency 17.78 µM (inhibitor, single point).
[Cl-].[Cl-].[Hg+2] [CP201] read Potency 19.01 µM (inhibitor, single point).
[Cl-].[Cl-].[Hg+2] [CP305] read Potency 15.1 µM (inhibitor, single point).
[Cl-].[Cl-].[Hg+2] [CP194] read Potency 16.94 µM (inhibitor, single point).
[Cl-].[Cl-].[Hg+2] [CP265] read Potency 8.912 µM (inhibitor, single point).
[Cl-].[Cl-].[Hg+2] [CP247] read Potency 7.08 µM (inhibitor, partial curve, poor fit).
[Cl-].[Cl-].[Hg+2] [CP291] read Potency 10.69 µM (inhibitor, single point).
Cc1nc2ccccc2n1Cc1ccc(Cl)cc1 [ATS189] read Potency 17.78 µM (inhibitor, single point).
Cc1nc2ccccc2n1Cc1ccc(Cl)cc1 [CP335] read Potency 15.1 µM (inhibitor, single point).
Cc1nc2ccccc2n1Cc1ccc(Cl)cc1 [CP211] read Potency 12 µM (inhibitor, single point).
Cc1nc2ccccc2n1Cc1ccc(Cl)cc1 [ECU] read Potency 12.59 µM (inhibitor, partial curve).
Cc1nc2ccccc2n1Cc1ccc(Cl)cc1 [DFO2036] read Potency 11.22 µM (inhibitor, single point).
Cc1nc2ccccc2n1Cc1ccc(Cl)cc1 [CP266] read Potency 0.6012 µM (inhibitor, full curve).
Cc1nc2ccccc2n1Cc1ccc(Cl)cc1 [AA1029] read Potency 17.78 µM (inhibitor, single point).
Cc1nc2ccccc2n1Cc1ccc(Cl)cc1 [CP247] read Potency 17.78 µM (inhibitor, single point).
Cc1nc2ccccc2n1Cc1ccc(Cl)cc1 [CP329] read Potency 19.01 µM (inhibitor, single point).
Cc1nc2ccccc2n1Cc1ccc(Cl)cc1 [HB3] read Potency 14.13 µM (inhibitor, single point).
Cc1nc2ccccc2n1Cc1ccc(Cl)cc1 [CP191] read Potency 11.22 µM (inhibitor, single point).
Cc1nc2ccccc2n1Cc1ccc(Cl)cc1 [CP325] read Potency 12 µM (inhibitor, single point).
Cc1nc2ccccc2n1Cc1ccc(Cl)cc1 [CP215] read Potency 13.46 µM (inhibitor, single point).
Cc1nc2ccccc2n1Cc1ccc(Cl)cc1 [CP252] read Potency 11.22 µM (inhibitor, single point).
Cc1nc2ccccc2n1Cc1ccc(Cl)cc1 [CP201] read Potency 21.33 µM (inhibitor, partial curve, poor fit).
Cc1nc2ccccc2n1Cc1ccc(Cl)cc1 [7G8] read Potency 5.012 µM (inhibitor, partial curve).
Cc1nc2ccccc2n1Cc1ccc(Cl)cc1 [CP217] read Potency 11.22 µM (inhibitor, single point).

Repeated from the top, 3 entries:

structure	condition	Potency (µM)	remark
[Cl-].[Cl-].[Hg+2]	CP315	19.01	inhibitor, single point
[Cl-].[Cl-].[Hg+2]	DIV14	16.94	inhibitor, single point
[Cl-].[Cl-].[Hg+2]	CP286	8.912	inhibitor, partial curve